{"source": "PubChem BioAssay AID1739", "about": "(National Center for Advancing Translational Sciences (NCATS), 2009)", "note": "“And” between values parts separate entries of the source, which are not always exact repeats. Identical values can stand only once. The inconclusive results got no clear call from the source; some entries with a clear call stand among them for comparison. A potency beside an inconclusive call is a rough fit, not a confirmed value. The source made the active and inactive calls. Calls follow the shape of the dose curve; as a rule, active = well fitted inhibition curve with a large enough effect; inconclusive = small, poorly fitted or top-dose-only effect; inactive = flat fitted curve, though single readings scatter.", "data": [{"assay": "Counterscreen Assay for Enhancers of SMN2 Splice Variant Expression: Modulation of SMN1 Expression", "conditions": "HEK293 SMN1-luciferase reporter, luminescence, 30-36 h; series mostly up to 22.8 µM; activity change, negative = inhibition: at the top concentration", "excerpt": "NIH Chemical Genomics Center [NCGC] NIH Molecular Libraries Probe Production centers Network [MLPCN] MLPCN Grant: R03 MH084179-01 Assay Submitter (PI): Elliot Androphy NCGC Assay Overview: Spinal muscular atrophy (SMA) is caused by insufficient levels of the survival motor neuron protein SMN. The SMN locus on chromosome 5q13 contains two inverted copies of SMN called SMN1 and SMN2 which are 99% identical at the amino acid level. SMN1 is a fully functional protein and SMN2 skips exon 7 90% of the time. Skipping of exon 7 produces non-functional protein product. 10% of the SMN2 protein includes exon 7 and is fully functional. In the SMA disease state, mutations in the SMN1 locus are the cause of the disease state. Because only 10% of SMN2 is of the fully functional form, it is not sufficient to overcome the deficiency produced by the loss of the SMN1 product. A therapy that either increase the amount of SMN2 product made or to increase the inclusion of exon 7 has been proposed for the treatment of SMA. We have designed an assay to identify small molecules that can increase the amount of functional SMN2 product by appending a luciferase reporter gene after the native SMN2 gene, such that inclusion of exon 7 in the expressed product places the luciferase sequence in frame, thus generating functional luciferase enzyme. As a counterscreen for nonspecific modulators of expression, we have run compounds through a similar assay that measures expression of an SMN1-luciferase chimera.\nNCGC Assay Protocol Summary: This screen utilizes a luciferase reporter gene assay, combining the promoter with the major portion of the native SMN1 cDNA (exons 1 -7, intron 8 , exon 8 fused to luciferase) stably expressed in HEK293 cells. Compounds that increase luciferase signal presumably enhance expression of the functional SMN1 splice variant. Passaging media contained DMEM w/ glutamax (+phenol red) 10% FCS, 1x pen/strep, 200 ug/ml hygro, 1x sodium pyruvate. Assay media contained DMEM w/ glutamax (-phenol red) 10% FCS, 1x pen strep, 1x pyruvate Sequence, Parameter, Value, Description (1) Cells, 5 uL, 2000 cells/well, 1536 TC treated White solid bottom plate (2) Time, 10-12 hours, 37C 5% CO2 (3) Compound, 23 nl, MLSMR Library (4) Control Compound, 23 nL, Sodium butyrate st 4.5mM (final) conc (5) Time, 30-36 hours, 37C 5% CO2 (6) Reagent, 3 ul, One Glo (TM) from Promega (7) Time, 5-15 minutes, Room temp (8) Detector, Viewlux: luminescent read, 60 second integration, high speed 2x binning Keywords: Spinal muscular atrophy, SMA, SMN2, high throughput screening, MLSMR, MLPCN, NIH Roadmap, qHTS and NCGC", "values": [{"smiles": "O=[N+]([O-])c1ccc(-c2nnc(-c3ccccc3)c(NCCCO)n2)cc1", "Potency": "inconclusive: 4.47 µM [inhibitor, full curve, poor fit]"}, {"smiles": "CCOc1c(Cl)cc(C(=O)Nc2ccccc2C(=O)O)cc1Cl", "Potency": "inconclusive: 2.51 µM [inhibitor, full curve]"}, {"smiles": "FC(F)(F)c1cccc(Oc2nc(-c3ccccc3)nnc2C(F)(F)F)c1", "activity change, negative = inhibition": "inactive: -15.9%"}, {"smiles": "Cc1ccc(-c2csc(N3CCC(NS(=O)(=O)c4ccc5c(c4)OCCO5)CC3)n2)cc1", "Potency": "inconclusive: 11.2 µM [inhibitor, partial curve, poor fit]"}, {"smiles": "OC[C@H]1O[C@@H](n2cnc3c(Nc4ccccc4)ncnc32)[C@H](O)[C@H]1O", "Potency": "inconclusive: 1.26 µM [activator, full curve, poor fit]"}, {"smiles": "Cc1oncc1C(=O)Nc1ccc(C(F)(F)F)cc1", "Potency": "inconclusive: 8.91 µM [inhibitor, full curve, poor fit]"}, {"smiles": "Cc1ccc(C(=O)Cn2c3c(sc2=N)CCCC3)cc1", "Potency": "active: 7.94 µM and inconclusive: 6.31 µM [inhibitor, full curve, poor fit]"}, {"smiles": "CCCSc1nnc2c(n1)OC(c1sccc1C)Nc1ccccc1-2", "note": "(stereo not given)", "Potency": "inconclusive: 15.8 µM [inhibitor, partial curve, poor fit]"}, {"smiles": "O=C(O)c1cccc(COc2ccc(CO)cc2Cl)c1", "Potency": "active: 3.16 µM"}, {"smiles": "Clc1nc(NCC2CCCO2)c2[nH]cnc2n1", "note": "(stereo not given)", "activity change, negative = inhibition": "inactive: -8.45% [at 46.1 µM]"}, {"smiles": "NC(=O)N1c2ccccc2C=Cc2ccccc21", "activity change, negative = inhibition": "inactive: -14% [at 46.1 µM]"}, {"smiles": "COC(=O)C1=C(CN2CCc3ccccc32)NC(=O)NC1c1cc(C)ccc1C", "note": "(stereo not given)", "Potency": "inconclusive: 12.6 µM [inhibitor, partial curve, poor fit]"}, {"smiles": "C#CCn1c(S(=O)(=O)Cc2ccccc2Cl)nc(-c2ccccc2)c1-c1ccccc1", "Potency": "inconclusive: 2.82 µM [inhibitor, full curve]"}, {"smiles": "O=C(Nc1cccnc1)/C(N=Nc1c(Cl)cccc1Cl)=C(\\O)c1ccccc1", "Potency": "inconclusive: 11.2 µM [inhibitor, full curve, poor fit]"}, {"smiles": "CCOc1ccc2nc(N3CCC(C(=O)N4CCN(c5ccccn5)CC4)CC3)sc2c1", "Potency": "inconclusive: 14.1 µM [inhibitor, partial curve, poor fit]"}, {"smiles": "NC(=O)C1(N2CCCCC2)CCN(c2nc(-c3ccc(Br)cc3)cs2)CC1", "Potency": "inconclusive: 6.31 µM [inhibitor, partial curve]"}, {"smiles": "c1coc(CNc2ncnc3ccccc23)c1", "Potency": "inconclusive: 4.47 µM [inhibitor, partial curve, poor fit]"}, {"smiles": "CCC(=O)n1nc(NCc2ccccc2OC)nc1NCc1ccccc1OC", "Potency": "inconclusive: 89.1 µM [inhibitor, single point]"}, {"smiles": "O=[N+]([O-])c1ccc(-c2nnc(-c3ccccc3)c(N3CCOCC3)n2)cc1", "activity change, negative = inhibition": "inactive: 3.38%"}, {"smiles": "CCCSc1nnc(Sc2nnnn2-c2ccccc2)s1", "Potency": "active: 7.08 µM"}, {"smiles": "COc1ccc(-c2csc(N3CCC(c4ccccc4)CC3)n2)cc1", "activity change, negative = inhibition": "inactive: -4.14%"}, {"smiles": "N#C/C(=C\\Nc1ccccc1SC(F)(F)F)c1nc(-c2ccc(Cl)cc2)cs1", "Potency": "inconclusive: 11.2 µM [inhibitor, full curve, poor fit]"}, {"smiles": "Cc1ccc(-c2csc(NC(=O)C3CCN(S(=O)(=O)c4cccs4)CC3)n2)cc1", "Potency": "inconclusive: 0.708 µM [inhibitor, full curve]"}, {"smiles": "COc1ccc(-c2csc(N3CCC(C(N)=O)(N4CCCCC4)CC3)n2)cc1", "activity change, negative = inhibition": "inactive: -14.5%"}, {"smiles": "FC(F)(F)c1nnc(-c2ccccc2)nc1Oc1ccccc1", "activity change, negative = inhibition": "inactive: -5.97%"}, {"smiles": "O=C(Nc1ccc([N+](=O)[O-])cc1Cl)c1cc(Cl)ccc1O", "Potency": "active: 0.708 µM"}, {"smiles": "Clc1nc(NCc2cccs2)c2[nH]cnc2n1", "Potency": "inconclusive: 11.2 µM [inhibitor, full curve, poor fit]"}, {"smiles": "Cc1nnc(-c2ccccc2)[nH]c1=O", "activity change, negative = inhibition": "inactive: -6.61%"}, {"smiles": "Cn1c(C(=O)NCc2cccs2)cc2oc3ccccc3c21", "Potency": "active: 3.16 µM"}, {"smiles": "CC(C)Nc1nc(-c2ccccc2)nnc1-c1ccccc1", "activity change, negative = inhibition": "inactive: -4.5%"}]}]}
